Measurements published in paper PMC12384986.

Sequences of proteins named here, by UniProt entry; tags and fusion partners are left off. Residues count along the entry.
UniProt P05231, 30-212: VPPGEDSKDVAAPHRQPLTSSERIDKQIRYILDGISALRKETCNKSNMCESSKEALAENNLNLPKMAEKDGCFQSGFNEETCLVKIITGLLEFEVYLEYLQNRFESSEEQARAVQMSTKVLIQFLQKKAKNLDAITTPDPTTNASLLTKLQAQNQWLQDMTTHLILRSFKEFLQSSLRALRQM

Biological target: Interleukin-6 (rhIL-6) (human) (UniProt P05231)
Assay: electrochemical aptasensor (SWV)
Conditions: 500 and 1000 pg/mL rhIL-6, 30 Hz, reversible; 3' thiol (immobilised on gold); 1x DPBS with 0.1 M NaCl, pH 7.4, room temperature; aptamer on gold electrode with MCH backfill, SWV 30-500 Hz; recombinant protein; label: 5' methylene blue; single-stranded DNA

GGTGGCAGGAGGACTATTTATTTGCTTTTCT [IL-6 aptamer]
binding result: binds

For at least one entry, the source does not settle the construct or the ends of the probe. At least one verdict rests on a figure or table, not on a statement of the authors.
